The results are deposited in PubChem (AID602201; NCATS, 2012).

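Tests whether compounds block coactivator recruitment by the ligand-activated VDR ligand-binding domain, using polarization of Texas Red emission near 615 nm after a two-hour incubation. Five-point series from about 0.09 to 57 µM. Potency is the fitted concentration giving half of the maximal inhibition; a lower value means a stronger inhibitor. Calls follow a score built from curve class and fitted potency, where 0 is inactive, 1–39 inconclusive and 40–100 active; every row here is inconclusive, across full, partial and single-point curves.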

Values are in nM. Every entry below has the call inconclusive. These entries are mostly ones the record files as inconclusive; other results of the assay are not listed here. Potencies fitted to partial, single-point or poorly fitting curves are rough. Some entries filed as inconclusive have a full curve. Activity scores are not listed here.

Compound | tested on / at | Potency (nM) | curve
Cc1cccc(/C=C/C(=O)c2cc(Br)ccc(=O)c2O)c1 | agonist-bound VDR ligand-binding domain | 3548 | inhibitor, single point
COc1ccc(NC(=O)/C(Cl)=C(/Cl)S(=O)Cc2ccccc2)cn1 (stereo not given) | agonist-bound VDR ligand-binding domain | 1778 | inhibitor, partial curve, poor fit
COc1ccc(Cl)cc1NC(=O)c1c(NCc2sccc2C)sc2c1CCCC2 | agonist-bound VDR ligand-binding domain | 39810 | inhibitor, single point
O=C(Oc1ccccc1/C=C\C(=O)c1cc2ccccc2o1)c1cccc(F)c1 | agonist-bound VDR ligand-binding domain | 2818 | inhibitor, partial curve, poor fit
Cc1ccc(C(=O)Oc2oc(-c3ccco3)nc2C=Nc2ccc(Cl)cc2)cc1 | agonist-bound VDR ligand-binding domain | 1995 | inhibitor, full curve, poor fit
Cn1c(N)c(C(=O)Nc2ccc(-c3ccccc3)cc2)sc1=S | agonist-bound VDR ligand-binding domain | 39810 | inhibitor, single point
COc1ccc(/C=C2/C(=O)N(c3c(F)c(F)c(F)c(F)c3F)N=C2C)cc1 | agonist-bound VDR ligand-binding domain | 15848 | inhibitor, partial curve
CC1CCN(C(=S)c2ccc(-c3ccc(Cl)cc3Cl)o2)CC1 | agonist-bound VDR ligand-binding domain | 31622 | inhibitor, single point
O=c1cc(-c2ccccc2)oc2c(O)c(O)ccc12 | agonist-bound VDR ligand-binding domain | 31622 | inhibitor, single point
COc1ccc(C(=O)/C=C2/C(=O)Nc3ccccc32)c(OC)c1 | agonist-bound VDR ligand-binding domain | 6310 | inhibitor, full curve
Cc1ccc(SC2=NS(=O)(=O)c3ccccc32)c(C)c1 | agonist-bound VDR ligand-binding domain | 39810 | inhibitor, single point
CCC(C)[C@@H](NC(=O)OC(C)(C)C)c1nnc(S(=O)(=O)Cc2cccc(C)c2)o1 (stereo not given in full) | agonist-bound VDR ligand-binding domain | 5012 | inhibitor, single point
N#Cc1c(NC(=O)Cn2nc(C(F)(F)F)c3c2CCCC3)sc2c1CCC2 | agonist-bound VDR ligand-binding domain | 3548 | inhibitor, single point
Cc1cc(O)c(C(=O)/C=C/c2ccc(C(C)C)cc2)c(=O)o1 | agonist-bound VDR ligand-binding domain | 3162 | inhibitor, full curve
c1ccc(-c2nn3c(Cn4cnc5ccccc54)nnc3s2)cc1 | agonist-bound VDR ligand-binding domain | 19952 | inhibitor, single point
O=C(NCc1cccnc1)/C(=C\c1ccc(-c2cccc(Cl)c2)o1)S(=O)(=O)c1ccccc1 | agonist-bound VDR ligand-binding domain | 5012 | inhibitor, full curve, poor fit
CC(C)Oc1ccc(C(=O)NC2=NCCS2)cc1 | agonist-bound VDR ligand-binding domain | 25118 | inhibitor, partial curve
COc1ccc(/C=C2\SC(=O)NC2=S)cc1OC | agonist-bound VDR ligand-binding domain | 707.9 | inhibitor, full curve, poor fit
Cc1nc2c(=O)[nH]c(=S)n(C)c2nc1C | agonist-bound VDR ligand-binding domain | 3548 | inhibitor, partial curve
CCOc1ccccc1NC(=O)c1nc(S(=O)(=O)Cc2cccc(C)c2)ncc1Cl | agonist-bound VDR ligand-binding domain | 3548 | inhibitor, single point
CCN1CCN(C(c2ccc(C(F)(F)F)cc2)c2ccc3cccnc3c2O)CC1 (stereo not given) | agonist-bound VDR ligand-binding domain | 3548 | inhibitor, full curve
Cc1cccc(CS(=O)(=O)c2ncc(Cl)c(C(=O)Nc3ccc(F)cc3)n2)c1 | agonist-bound VDR ligand-binding domain | 2239 | inhibitor, full curve
Cc1ccc(C(=O)/C=C/c2ccc3ncccc3c2)cc1 | agonist-bound VDR ligand-binding domain | 3548 | inhibitor, partial curve, poor fit
O=C(O)/C=C/C(=O)c1ccc2c(c1)CCc1ccccc1-2 | agonist-bound VDR ligand-binding domain | 891.3 | inhibitor, full curve
COc1ccc(C(=O)n2nnc3ccccc32)cc1OC | agonist-bound VDR ligand-binding domain | 39810 | inhibitor, single point
O=C1NN(c2ccccc2)C(=O)/C1=C/c1ccc(Sc2ccc(Cl)cc2)o1 | agonist-bound VDR ligand-binding domain | 5012 | inhibitor, partial curve, poor fit
CCOC(=O)c1cc(-c2ccccc2)sc1NC(=O)c1ccc(OC)cc1 | agonist-bound VDR ligand-binding domain | 3162 | inhibitor, full curve
COc1cc(/C=C/C(=O)Nc2nnc(CC(C)(C)C)s2)cc(OC)c1OC | agonist-bound VDR ligand-binding domain | 6310 | inhibitor, full curve
Nc1cccc2c1C(=O)N(C(=O)/C=C/c1cccc(Br)c1)C2=O | agonist-bound VDR ligand-binding domain | 2239 | inhibitor, full curve, poor fit
COC(=O)c1sc(=S)n(-c2cc(F)ccc2F)c1N | agonist-bound VDR ligand-binding domain | 8912 | inhibitor, partial curve
CCC(=O)OCCNc1cc(Sc2nc3ccccc3s2)c2nonc2c1[N+](=O)[O-] | agonist-bound VDR ligand-binding domain | 1412 | inhibitor, full curve

Repeated from the top, 2 entries:

Compound,tested on / at,Potency (nM),curve
Cc1cccc(/C=C/C(=O)c2cc(Br)ccc(=O)c2O)c1,agonist-bound VDR ligand-binding domain,3548,"inhibitor, single point"
COc1ccc(NC(=O)/C(Cl)=C(/Cl)S(=O)Cc2ccccc2)cn1 (stereo not given),agonist-bound VDR ligand-binding domain,1778,"inhibitor, partial curve, poor fit"